Structures were worked out from names or drawings and are uncertain.
target: bovine cerebral TPK1 (Bos taurus, UniProt A0A3Q1MT31); assay: Inhibitory activity against P-GS1 phosphorylation by bovine cerebral TPK1; conditions: 41.7 μM [γ-32P]ATP, 25° C., 2 hours, pH 6.5
Method: Test Example: Inhibitory activity of the medicament of the present invention against P-GS1 phosphorylation by bovine cerebral TPK1
A mixture containing 100 mM MES-sodium hydroxide (pH 6.5), 1 mM magnesium acetate, 0.5 mM EGTA, 5 mM β-mercaptoethanol, 0.02% Tween 20, 10% glycerol, 12 μg/ml P-GS1, 41.7 μM [Υ-^32P] ATP (68 kBq/ml), bovine cerebral TPK1 and a compound shown in Table (a final mixture contained 1.7% DMSO deriving from a solution of a test compound prepared in the presence of 10% DMSO) was used as a reaction system. The phosphorylation was started by adding ATP, and the reaction was conducted at 25° C. for 2 hours, and then stopped by adding 21% perchloric acid on ice cooling. The reaction mixture was centrifuged at 12,000 rpm for 5 minutes and adsorbed on P81 paper (Whatmann), and then the paper was washed four times with 75 mM phosphoric acid, three times with water and once with acetone. The paper was dried, and the residual radioactivity was measured using a liquid scintillation counter.

Sequences of proteins named here, by UniProt entry; tags and fusion partners are left off. Residues count along the entry.
UniProt A0A3Q1MT31, 1-419: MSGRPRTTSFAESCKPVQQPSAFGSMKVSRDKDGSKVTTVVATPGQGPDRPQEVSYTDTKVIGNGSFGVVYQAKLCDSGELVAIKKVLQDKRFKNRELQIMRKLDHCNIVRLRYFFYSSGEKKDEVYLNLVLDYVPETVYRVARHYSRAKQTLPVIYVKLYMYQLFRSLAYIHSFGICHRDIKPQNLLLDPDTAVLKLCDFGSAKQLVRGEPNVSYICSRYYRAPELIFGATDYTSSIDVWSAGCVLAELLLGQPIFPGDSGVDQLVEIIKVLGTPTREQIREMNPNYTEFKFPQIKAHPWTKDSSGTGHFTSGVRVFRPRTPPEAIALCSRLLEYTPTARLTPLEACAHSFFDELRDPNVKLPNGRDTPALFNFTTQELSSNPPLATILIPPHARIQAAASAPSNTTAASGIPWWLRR

Structure (SMILES) | IC50 [nM]
Cn1c(N2CCCC(C(=O)c3ccc(Cl)s3)C2)nc(-c2ccncc2)cc1=O (stereo not shown) | 10
COc1ccc(OC)c(C2CN(c3nc(-c4ccncc4)cc(=O)n3C)CCO2)c1 (racemic) | 0.28
COc1ccc([C@H]2CN(c3nc(-c4ccncc4)cc(=O)n3C)CCO2)c(OC)c1 | 0.3
COc1ccc(C2CN(c3nc(-c4ccncc4)cc(=O)n3C)CCO2)c(OC)c1 (stereo not shown) | 0.9
Cn1c(N2CCOC(c3ccc(CN4CCCC4)cc3)C2)nc(-c2ccncc2)cc1=O (racemic) | 4.7
Cn1c(N2CCOC(c3cccc4c3OCC4)C2)nc(-c2ccncc2)cc1=O (stereo not shown) | 1.2
COc1ccccc1C(=O)C1CCCN(c2nc(-c3ccncc3)cc(=O)n2C)C1 (stereo not shown) | 9

— US7427615B2, “3-substituted-4-pyrimidone derivatives” (Mitsubishi Pharma Corporation, priority 2001, dated 2008)
